Measurements reported in PubChem BioAssay AID210 (DTP/NCI, 2004).
The list shows only some results of the screen, not a fair sample: it gathers tests that were run many times, whatever their T/C, doses with no T/C, and many T/C values between a quarter and a half above the control. Further doses and runs are listed elsewhere. T/C: endpoint of the treated group in % of that of the vehicle group. Some doses have a count of surviving animals in place of a T/C: the source holds a T/C of zero for them, seemingly a mark for toxic or unscored doses. Some survivor counts are full or nearly so, which does not show that the dose was tolerated: the source hardly ever lists a survival T/C far under the control, and the zero likely stands for such cases as well. Counts of survivors are from the toxicity check (mostly the fifth day) where no day follows; animals may have died later. Schedule codes are those of the source, read here as Q, the interval in days (D) or hours (H), X, the number of doses. Some doses were run more than once; their values stand side by side, smallest first. Where survival is the endpoint, the PubChem record calls one and a half times the control and up active, and a quarter to a half above the control has no call in these data; cut-offs in other NCI protocols can differ. Some T/C values are followed by the survivors on the day toxicity was checked, most often the fifth; where none is given, no animal had died by that day.

System: CD2F1 mice, ip Colon 26 adenocarcinoma, median survival T/C
Assay: NCI In Vivo Anticancer Drug Screen. Data for tumor model Colon 26 Adenocarcinoma (intraperitoneal) in CD2F1 (CDF1) mice
Details: T/C endpoint: median survival time, higher T/C = longer survival
Procedure: The antitumor activity of compounds was measured in mice bearing transplantable tumors. Survival or tumor size were measured and the results are expressed as the measurement made in the treated group (T) divided by the measurement made in the vehicle treated control group (C). The tumor model used in this assay is Colon 26 Adenocarcinoma (intraperitoneal) in CD2F1 (CDF1) mice

[1] = dose: 200.0 mg/kg/injection, schedule: Q04DX002 (ip), vehicle: saline + alcohol
[2] = dose: 400.0 mg/kg/injection, schedule: Q04DX002 (ip), vehicle: saline + alcohol

With `Nc1ncn(C2OC(CO)C(O)C2O)c(=O)n1` (stereo not drawn) the T/C (dose: 1.0 mg/kg/injection, schedule: Q04DX003 (ip), vehicle: saline, evaluated on day 60) was 104 % of control, the T/C (dose: 1.0 mg/kg/injection, schedule: Q04DX003 (ip), vehicle: saline, evaluated on day 70) was 99, 100, 113, 123, 157 % of control and the T/C (dose: 2.0 mg/kg/injection, schedule: Q04DX003 (ip), vehicle: saline, evaluated on day 60) was 106 % of control. For the same compound, the T/C (dose: 2.0 mg/kg/injection, schedule: Q04DX003 (ip), vehicle: saline, evaluated on day 70) was 105, 106, 114, 131 [9 of 10 alive], 137 % of control, the T/C (dose: 4.0 mg/kg/injection, schedule: Q04DX003 (ip), vehicle: saline, evaluated on day 60) was 110 % of control and the T/C (dose: 4.0 mg/kg/injection, schedule: Q04DX003 (ip), vehicle: saline, evaluated on day 70) was 100, 109, 122, 127, 189 % of control. The T/C (dose: 8.0 mg/kg/injection, schedule: Q04DX003 (ip), vehicle: saline, evaluated on day 60) was 100 % of control, the T/C (dose: 8.0 mg/kg/injection, schedule: Q04DX003 (ip), vehicle: saline, evaluated on day 70) was 90, 107, 119, 215, 234 % of control and the T/C (dose: 16.0 mg/kg/injection, schedule: Q04DX003 (ip), vehicle: saline, evaluated on day 60) was 117 % of control [9 of 10 alive]. For the same compound, the T/C (dose: 16.0 mg/kg/injection, schedule: Q04DX003 (ip), vehicle: saline, evaluated on day 70) was 117, 124, 128, 182 % of control, the survivor count (dose: 16.0 mg/kg/injection, schedule: Q04DX003 (ip), vehicle: saline) was 10 of 10 and the survivor count (dose: 35.0 mg/kg/injection, schedule: Q04DX003 (iv), vehicle: saline) was 10 of 10.
`O=c1[nH]c(=O)n(C2CC(O)C(CO)O2)cc1F` (stereo not drawn) was tested, and the T/C (dose: 80.0 mg/kg/injection, schedule: Q07DX003 (ip), vehicle: saline) was 145 % of control.
With `O=c1c(O)c(-c2ccc(O)c(O)c2)oc2cc(O)cc(O)c12` the survivor count (dose: 200.0 mg/kg/injection, schedule: Q04DX003 (ip), vehicle: other) was 10 of 10 and the survivor count (dose: 400.0 mg/kg/injection, schedule: Q04DX003 (ip), vehicle: other) was 10 of 10.
For `CC[C@]1(O)C[C@H]2CN(CCc3c([nH]c4ccccc34)[C@@](C(=O)OC)(c3cc4c(cc3OC)N(C=O)[C@H]3[C@@](O)(C(=O)OC)[C@H](OC(C)=O)[C@]5(CC)C=CCN6CC[C@]43[C@@H]65)C2)C1`, the T/C (dose: 2.1 mg/kg/injection, schedule: Q07DX003 (ip), vehicle: saline) was 136 % of control and the survivor count (dose: 3.0 mg/kg/injection, schedule: Q07DX003 (ip), vehicle: saline) was 9 of 10.
`CC(=O)Oc1ccccc1C(=O)O` was tested, and the survivor count (dose: 144.0 mg/kg/injection, schedule: Q04DX002 (ip), vehicle: saline with Tween-80) was 10 of 10, the survivor count (dose: 288.0 mg/kg/injection, schedule: Q04DX002 (ip), vehicle: saline with Tween-80) was 8 of 10 and the survivor count (dose: 576.0 mg/kg/injection, schedule: Q04DX002 (ip), vehicle: saline with Tween-80) was 8 of 10. For the same compound, the survivor count (dose: 1152.0 mg/kg/injection, schedule: Q04DX002 (ip), vehicle: saline with Tween-80) was 5 of 10.
For `NCCNc1ccc(NCCN)c2c1C(=O)c1ccccc1C2=O`, the T/C (dose: 1.0 mg/kg/injection, schedule: Q01DX009 (ip), vehicle: acid diluted with saline) was 145 % of control and the survivor count (dose: 24.0 mg/kg/injection, schedule: Q01DX009 (ip), vehicle: acid diluted with saline) was 8 of 10.
`CCNCCNc1ccc(NCCNCC)c2c1C(=O)c1ccccc1C2=O` was tested, and the T/C (dose: 2.0 mg/kg/injection, schedule: Q01DX009 (ip), vehicle: acid diluted with saline) was 126 % of control, the T/C (dose: 4.0 mg/kg/injection, schedule: Q01DX009 (ip), vehicle: acid diluted with saline) was 145 % of control and the survivor count (dose: 32.0 mg/kg/injection, schedule: Q01DX009 (ip), vehicle: acid diluted with saline) was 5 of 10 and 10 of 10.
`CC[C@](O)(C(=O)O)c1cc2n(c(=O)c1CO)Cc1cc3ccccc3nc1-2` was tested, and the T/C (dose: 50.0 mg/kg/injection, schedule: Q04DX003 (ip), vehicle: saline) was 128 % of control, the survivor count (dose: 100.0 mg/kg/injection, schedule: Q04DX003 (ip), vehicle: saline) was 6 of 10 and the survivor count (dose: 200.0 mg/kg/injection, schedule: Q04DX003 (ip), vehicle: saline) was 2 of 10.
With `COc1cccc2c1C(=O)c1c(O)c3c(c(O)c1C2=O)C[C@@](O)(C(C)=O)C[C@@H]3OC1CC(N)C(O)C(C)O1` (stereo partly drawn) the T/C (dose: 0.5 mg/kg/injection, schedule: Q04DX003 (ip), vehicle: saline) was 129 % of control, the T/C (dose: 1.0 mg/kg/injection, schedule: Q04DX003 (ip), vehicle: saline) was 140 % of control and the survivor count (dose: 6.0 mg/kg/injection, schedule: Q04DX003 (ip), vehicle: water) was 8 of 8. For the same compound, the survivor count (dose: 8.0 mg/kg/injection, schedule: Q04DX003 (ip), vehicle: saline) was 10 of 10.
`CN(C)CCCNc1cccc2c1C(=O)c1cccc(NCCCN(C)C)c1C2=O` was tested, and the survivor count (dose: 64.0 mg/kg/injection, schedule: Q01DX009 (ip), vehicle: saline) was 9 of 10 and the survivor count (dose: 128.0 mg/kg/injection, schedule: Q01DX009 (ip), vehicle: saline) was 7 of 10.
In the case of `C=C(C)[C@]12CC(C)C34OC(/C=C\C=C\CCCCCCCCC)(O[C@@H]1[C@@H]3[C@@H]1O[C@]1(CO)[C@@H](O)[C@]1(O)C(=O)C(C)=C[C@@H]41)O2` (stereo partly drawn), the survivor count (dose: 1.5 mg/kg/injection, schedule: Q04DX003 (ip), vehicle: distilled water + alcohol) is reported as 5 of 10, the survivor count (dose: 3.0 mg/kg/injection, schedule: Q04DX003 (ip), vehicle: distilled water + alcohol) is reported as 0 of 10 and the survivor count (dose: 6.0 mg/kg/injection, schedule: Q04DX003 (ip), vehicle: distilled water + alcohol) is reported as 0 of 10.
In the case of `CCC1CN2C(=N1)c1ccccc1-c1cc(Cl)ccc12` (stereo not drawn), the T/C (dose: 1.25 mg/kg/injection, schedule: Q04DX003 (ip), vehicle: saline) is reported as 125 % of control, the T/C (dose: 20.0 mg/kg/injection, schedule: Q04DX003 (ip), vehicle: saline) is reported as 141 % of control and the T/C (dose: 20.0 mg/kg/injection, schedule: Q04DX003 (ip), vehicle: suspension in saline) is reported as 125 % of control. The survivor count (dose: 80.0 mg/kg/injection, schedule: Q04DX003 (ip), vehicle: suspension in saline) was 8 of 10.
`CCCCCCCCCCCCCCCCS(=O)CC(O)COC(=O)c1ccc(C(=O)OCC(O)CS(=O)CCCCCCCCCCCCCCCC)cc1` (stereo not drawn) was tested, and the survivor count [1] was 9 of 10 and the survivor count [2] was 7 of 10.
`CC1CCC(NC(=O)N(CCCl)N=O)CC1` (stereo not drawn) was tested, and the survivor count (dose: 40.0 mg/kg/injection, schedule: Q04DX003 (ip), vehicle: Klucel (hydroxypropylcellulose) (HPC)) was 10 of 10.
For `O=NN(CCCl)C(=O)NC1CCCCC1`, the T/C (dose: 20.0 mg/kg/injection, schedule: Q04DX003 (ip), vehicle: carboxymethylcellulose (CMC)) was 130 % of control and the survivor count (dose: 160.0 mg/kg/injection, schedule: Q04DX003 (ip), vehicle: carboxymethylcellulose (CMC)) was 10 of 10.
In the case of `CC1C(=O)CCC2(C)C1CCC1CC3CC12CCC3(O)CO` (stereo not drawn), the survivor count [1] is reported as 10 of 10 and the survivor count [2] is reported as 9 of 10.
For `CC/C(=C(/CC)c1ccc(O)cc1)c1ccc(O)cc1`, the survivor count (dose: 200.0 mg/kg/injection, schedule: Q04DX003 (ip), vehicle: saline with Tween-80) was 10 of 10.
With `CN(C)C=O` the survivor count (dose: 200.0 mg/kg/injection, schedule: Q04DX002 (ip), vehicle: saline) was 10 of 10 and the survivor count (dose: 3200.0 mg/kg/injection, schedule: Q04DX002 (ip), vehicle: saline) was 6 of 10.
`N/C(=N\O)c1cn(C2OC(CO)C(O)C2O)c2ncnc(N)c12` (stereo not drawn) was tested, and the T/C (dose: 16.0 mg/kg/injection, schedule: Q04DX003 (ip), vehicle: Klucel (hydroxypropylcellulose) (HPC)) was 127 % of control, the survivor count (dose: 32.0 mg/kg/injection, schedule: Q04DX003 (ip), vehicle: Klucel (hydroxypropylcellulose) (HPC)) was 7 of 10 and 10 of 10 and the survivor count (dose: 64.0 mg/kg/injection, schedule: Q04DX003 (ip), vehicle: Klucel (hydroxypropylcellulose) (HPC)) was 2 of 10. The survivor count (dose: 128.0 mg/kg/injection, schedule: Q04DX003 (ip), vehicle: Klucel (hydroxypropylcellulose) (HPC)) was 0 of 10.
`C=C/C(C)=C/[C@H](C)C(=O)C[C@H](O)CC1CC(=O)NC(=O)C1` was tested, and the T/C (dose: 100.0 mg/kg/injection, schedule: Q04DX003 (ip), vehicle: saline with Tween-80) was 127 % of control.
With `O=C(N/N=C\c1cc(Br)cc(Br)c1O)N/N=C/c1cc(Br)cc(Br)c1O` the T/C (dose: 400.0 mg/kg/injection, schedule: Q04DX003 (ip), vehicle: saline with Tween-80) was 129 % of control.
